# Source: patent publication EP1958941A1, “Oxazolidinones and their use as hypocholesterolemic agents” (Lipideon Biotechnology AG, priority 2007, dated 2008)
# For at least one compound, name, drawing or mass did not settle the structure.
# System: rabbit brush border membrane vesicles (BBMV)
# Experiment: inhibition of cholesterol uptake in rabbit brush border membrane vesicles (scavenger receptor-mediated uptake of radiolabelled cholesterol ester from donor particles)
# Type: biochemical
# Settings: inhibition of uptake of radiolabelled cholesterol ester from loaded donor particles into the BBMV bilayer; test concentration not given
# Description: Chem. Int. Ed. 2004, 43, 4653-4656; Kvaerno, L. et. al. Org. Lett. 2005, 7, 1145-1148, van Bennekum, A. et. al. Biochemistry 2005, 44, 4517-4525).
# The compounds of the invention (commercially obtained or prepared according to Wu, G. Z. et al., J. Org. Chem. 1999, 64, 3714-3718) together with the glucuronide (the metabolite of ezetimibe, prepared according to Vaccaro and Davis, Bioorg. Med. Chem. Lett. 1998, 8, 313-318) as appropriate reference compounds were evaluated by well-established methods to determine their inhibition of cholesterol uptake in rabbit brush border membrane vesicles (BBMV) (Table 1). Briefly, the scavenger receptor-mediated uptake of radiolabelled cholesterol ester from the loaded donor particles into the BBMV bilayer was measured in the presence of various compounds of the invention and appropriate reference compounds (Kvaerno, L. et al, Angew. Chem. Int. Ed. 2004, 43, 4653-4656; Kvaerno, L. et al, Org. Lett. 2005, 7, 1145-1148).
smiles,measurement,value
"CN(C)CCNC(=O)c1ccc(N2C(=O)O[C@H](CO)[C@H]2c2ccc(OCc3ccccc3)cc2)cc1 [Compound 32, ((4R,5S)-4-(4-(benzyloxy)phenyl)-5-(hydroxy-methyl)-2-oxooxazolidin-3-yl)-N-(2-(dimethylamino)ethyl)-benzamide]",CAI (%) Inhibition,30 ± 2%
